Results are given in words; binding and its absence hold for the method and conditions named. A result given as binding can be weak or reduced; the word gives no strength.

In US20220073618A1 one finds binding data, which are given here for two molecules.

For this test, the target named is monkey PD-L1 on cell surface (monkey). Nature of the test: flow cytometry on CHO cells overexpressing monkey PD-L1. A general note: A flow cytometer gives signals particle by particle.

B1: AH01946 (antibody, human IgG1, V domains shown)
VH: QVQLQESGPGLVKPSQTLSLTCTVSGYSITSGYTWHWIRQHPGKGLEWIGYIHYSGSTKYNPSLKSRVTISRDTSKNQFSLKLSSMTAADTAVYYCARNSLFASWGQGTLVTVSS
VL: DIVLTQSPDSLAVSLGERATINCRASESVDTYGDSFMHWFQQKPGQPPKLLIYRASNLESGVPDRFSGSGSGTDFTLTISSVQAEDVAVYYCQQSNEAPYTFGGGTKLEIK
With B1, the binding entry is on record as “binds”.

B2: AH02029 (antibody, human IgG1, V domains shown)
VH: QVQLQESGPGLVKPSQTLSLTCTVTGYSITSGYTWHWIRQHPGKGLEWIGYIHYSGSTKYNPSLKSRVSISRDTSKNQFSLKLSSVTAADTAVYYCARNSLFASWGQGTLVTVSS
VL: DIVLTQSPDSLAVSLGERATINCRASESVDTYGDSFMHWYQQKPGQPPKLLIYRASNLESGVPDRFSGSGSGTDFTLTISSLQAEDVAVYYCQQSNEAPYTFGGGTKLEIK
B2: the binding result was “binds”.
